Assay results from publication PMC12583452.

Sequences of proteins named here, by UniProt entry; tags and fusion partners are left off.
UniProt O94874: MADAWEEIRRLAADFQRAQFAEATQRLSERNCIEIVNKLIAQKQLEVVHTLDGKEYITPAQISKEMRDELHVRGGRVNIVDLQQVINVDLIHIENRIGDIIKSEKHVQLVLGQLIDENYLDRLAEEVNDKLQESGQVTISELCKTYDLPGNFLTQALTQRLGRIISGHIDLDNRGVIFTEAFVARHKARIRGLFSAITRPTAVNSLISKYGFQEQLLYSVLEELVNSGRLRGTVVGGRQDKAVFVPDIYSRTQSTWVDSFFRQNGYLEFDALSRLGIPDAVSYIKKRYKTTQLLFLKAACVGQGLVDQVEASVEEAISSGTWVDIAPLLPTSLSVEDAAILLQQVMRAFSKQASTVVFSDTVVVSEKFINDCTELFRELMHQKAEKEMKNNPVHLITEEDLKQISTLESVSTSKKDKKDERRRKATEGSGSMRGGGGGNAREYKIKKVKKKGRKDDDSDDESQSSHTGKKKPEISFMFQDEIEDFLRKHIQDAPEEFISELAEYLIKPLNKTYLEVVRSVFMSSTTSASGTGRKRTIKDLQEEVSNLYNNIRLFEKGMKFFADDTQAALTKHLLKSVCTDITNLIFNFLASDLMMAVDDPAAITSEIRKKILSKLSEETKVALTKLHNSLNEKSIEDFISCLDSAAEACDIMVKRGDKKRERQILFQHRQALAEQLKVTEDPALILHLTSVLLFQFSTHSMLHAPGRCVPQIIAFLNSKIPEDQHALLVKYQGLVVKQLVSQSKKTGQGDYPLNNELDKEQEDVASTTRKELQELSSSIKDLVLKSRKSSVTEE

Biological target: FLAG-UFL1 (UFM1-specific ligase 1), expressed in HEK293T cells (UniProt O94874)
Assay: affinity purification with mass spectrometry; HEK293T cells expressing FLAG-UFL1 (or vector) lysed under non-denaturing conditions, IP with anti-FLAG M2 beads, SDS-PAGE, mass spectrometry

Binder | binding
MCM3 (endogenous, HEK293T) (protein, UniProt P25205 1-808) MAGTVVLDDVELREAQRDYLDFLDDEEDQGIYQSKVRELISDNQYRLIVNVNDLRRKNEKRANRLLNNAFEELVAFQRALKDFVASIDATYAKQYEEFYVGLEGSFGSKHVSPRTLTSCFLSCVVCVEGIVTKCSLVRPKVVRSVHYCPATKKTIERRYSDLTTLVAFPSSSVYPTKDEENNPLETEYGLSVYKDHQTITIQEMPEKAPAGQLPRSVDVILDDDLVDKAKPGDRVQVVGTYRCLPGKKGGYTSGTFRTVLIACNVKQMSKDAQPSFSAEDIAKIKKFSKTRSKDIFDQLAKSLAPSIHGHDYVKKAILCLLLGGVERDLENGSHIRGDINILLIGDPSVAKSQLLRYVLCTAPRAIPTTGRGSSGVGLTAAVTTDQETGERRLEAGAMVLADRGVVCIDEFDKMSDMDRTAIHEVMEQGRVTIAKAGIHARLNARCSVLAAANPVYGRYDQYKTPMENIGLQDSLLSRFDLLFIMLDQMDPEQDREISDHVLRMHRYRAPGEQDGDAMPLGSAVDILATDDPNFSQEDQQDTQIYEKHDNLLHGTKKKKEKMVSAAFMKKYIHVAKIIKPVLTQESATYIAEEYSRLRSQDSMSSDTARTSPVTARTLETLIRLATAHAKARMSKTVDLQDAEEAVELVQYAYFKKVLEKEKKRKKRSEDESETEDEEEKSQEDQEQKRKRRKTRQPDAKDGDSYDPYDFSDTEEEMPQVHTPKTADSQETKESQKVELSESRLKAFKVALLDVFREAHAQSIGMNRLTESINRDSEEPFSSVEIQAALSKMQDDNQVMVSEGIIFLI | binds
MCM5 (endogenous, HEK293T) (protein, UniProt P33992 1-734) MSGFDDPGIFYSDSFGGDAQADEGQARKSQLQRRFKEFLRQYRVGTDRTGFTFKYRDELKRHYNLGEYWIEVEMEDLASFDEDLADYLYKQPAEHLQLLEEAAKEVADEVTRPRPSGEEVLQDIQVMLKSDASPSSIRSLKSDMMSHLVKIPGIIIAASAVRAKATRISIQCRSCRNTLTNIAMRPGLEGYALPRKCNTDQAGRPKCPLDPYFIMPDKCKCVDFQTLKLQELPDAVPHGEMPRHMQLYCDRYLCDKVVPGNRVTIMGIYSIKKFGLTTSRGRDRVGVGIRSSYIRVLGIQVDTDGSGRSFAGAVSPQEEEEFRRLAALPNVYEVISKSIAPSIFGGTDMKKAIACLLFGGSRKRLPDGLTRRGDINLLMLGDPGTAKSQLLKFVEKCSPIGVYTSGKGSSAAGLTASVMRDPSSRNFIMEGGAMVLADGGVVCIDEFDKMREDDRVAIHEAMEQQTISIAKAGITTTLNSRCSVLAAANSVFGRWDETKGEDNIDFMPTILSRFDMIFIVKDEHNEERDVMLAKHVITLHVSALTQTQAVEGEIDLAKLKKFIAYCRVKCGPRLSAEAAEKLKNRYIIMRSGARQHERDSDRRSSIPITVRQLEAIVRIAEALSKMKLQPFATEADVEEALRLFQVSTLDAALSGTLSGVEGFTSQEDQEMLSRIEKQLKRRFAIGSQVSEHSIIKDFTKQKYPEHAIHKVLQLMLRRGEIQHRMQRKVLYRLK | binds

No constants are given. Whether binding was seen depends on the method and setting. Binding seen in cells or lysates may run through a third protein. A yes stands for co-enrichment or nearness to the bait. Other partners may have been found.
